These are yes or no findings as the source states them, for the method shown. In cells and extracts the contact can be indirect. A yes stands for co-enrichment or nearness to the bait. Other partners may have been found. Sequences can lack the tags named with a protein.
T1: SPIC-green fluorescent protein (GFP) fusion protein (mouse) (UniProt Q6P3D7)
T1 sequence: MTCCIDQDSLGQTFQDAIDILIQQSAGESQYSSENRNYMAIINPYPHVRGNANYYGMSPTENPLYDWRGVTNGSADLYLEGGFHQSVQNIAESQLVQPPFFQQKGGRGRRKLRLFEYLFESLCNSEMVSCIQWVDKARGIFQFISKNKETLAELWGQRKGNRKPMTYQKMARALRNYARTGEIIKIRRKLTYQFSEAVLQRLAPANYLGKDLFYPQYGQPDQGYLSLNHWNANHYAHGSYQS

The chains behind the UniProt entries cited, without tags or fusion partners.
UniProt Q9DBD5: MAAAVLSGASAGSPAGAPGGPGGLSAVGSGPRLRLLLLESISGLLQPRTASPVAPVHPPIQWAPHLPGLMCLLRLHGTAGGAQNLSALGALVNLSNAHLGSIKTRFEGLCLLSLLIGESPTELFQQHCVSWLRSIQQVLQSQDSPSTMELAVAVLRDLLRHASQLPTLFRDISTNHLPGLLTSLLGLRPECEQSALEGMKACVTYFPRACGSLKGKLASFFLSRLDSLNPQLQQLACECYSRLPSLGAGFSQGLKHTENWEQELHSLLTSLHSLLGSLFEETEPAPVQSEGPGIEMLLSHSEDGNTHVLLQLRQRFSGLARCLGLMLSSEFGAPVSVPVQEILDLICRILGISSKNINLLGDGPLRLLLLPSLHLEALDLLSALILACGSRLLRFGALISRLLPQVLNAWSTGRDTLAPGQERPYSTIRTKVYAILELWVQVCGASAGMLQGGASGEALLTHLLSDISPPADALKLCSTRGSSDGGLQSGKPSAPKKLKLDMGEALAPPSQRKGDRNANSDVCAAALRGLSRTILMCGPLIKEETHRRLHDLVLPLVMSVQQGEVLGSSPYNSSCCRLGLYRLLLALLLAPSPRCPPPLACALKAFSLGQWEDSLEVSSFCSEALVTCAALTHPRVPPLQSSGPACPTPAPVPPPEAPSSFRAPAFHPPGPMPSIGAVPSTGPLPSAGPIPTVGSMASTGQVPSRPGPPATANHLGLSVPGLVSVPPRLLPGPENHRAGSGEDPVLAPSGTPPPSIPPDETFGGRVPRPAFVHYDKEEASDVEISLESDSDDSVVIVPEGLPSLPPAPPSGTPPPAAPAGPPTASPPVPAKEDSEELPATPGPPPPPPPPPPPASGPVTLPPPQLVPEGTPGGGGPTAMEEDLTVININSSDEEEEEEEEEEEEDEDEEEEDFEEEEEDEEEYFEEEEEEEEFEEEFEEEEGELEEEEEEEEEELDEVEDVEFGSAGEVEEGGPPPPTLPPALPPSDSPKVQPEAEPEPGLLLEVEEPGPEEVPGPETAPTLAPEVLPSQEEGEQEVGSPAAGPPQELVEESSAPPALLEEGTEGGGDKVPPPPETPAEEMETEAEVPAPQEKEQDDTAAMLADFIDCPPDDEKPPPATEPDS
UniProt Q9EP97: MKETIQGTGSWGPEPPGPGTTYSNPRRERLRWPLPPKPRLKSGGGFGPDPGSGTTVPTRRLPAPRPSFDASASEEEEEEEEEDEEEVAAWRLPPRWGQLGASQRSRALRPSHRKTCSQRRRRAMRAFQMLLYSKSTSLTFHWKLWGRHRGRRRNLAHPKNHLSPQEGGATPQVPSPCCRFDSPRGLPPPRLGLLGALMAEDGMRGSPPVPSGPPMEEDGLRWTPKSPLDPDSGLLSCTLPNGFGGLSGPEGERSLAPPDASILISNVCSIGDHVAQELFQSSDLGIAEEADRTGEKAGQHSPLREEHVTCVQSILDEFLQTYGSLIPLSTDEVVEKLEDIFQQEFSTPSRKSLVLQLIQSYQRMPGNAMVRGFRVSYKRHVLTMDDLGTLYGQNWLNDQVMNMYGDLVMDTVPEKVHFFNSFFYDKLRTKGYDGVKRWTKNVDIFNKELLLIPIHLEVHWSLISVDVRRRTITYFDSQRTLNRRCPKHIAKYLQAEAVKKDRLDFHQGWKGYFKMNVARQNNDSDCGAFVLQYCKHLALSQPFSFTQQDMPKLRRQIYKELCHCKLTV

B1: ZFP609 (Zinc finger protein 609) (protein, UniProt Q8BZ47 1-1413)
chain: MSLSSGACGGKGVDANPVETYDSGDEWDIGVGNLIIDLDADLEKDQQKLEMSGSKEVGIPAPNAVATLPDNIKFVTPVPGPQGKEGKSKSKRSKSGKDASKPTPGTSLFSPSEGAASKKEVQGRAGDGASAGGLVAAVAPKGSEKAAKASRSVAGSKKEKENSSSKGKKERSEGVGTCSEKDPGVLQPVPLGGRGSQYDGSAGMDTGTVEPLGSIAIEPGAALNPLGTKPEPEEGENECRPLKKVKSEKMESPVSTPAVLPLHLLVPVVNNDISSPCEQIMVRTRSVGVNTCDVALATEPECLGPCEPGTSVNLEGIVWQETEDGMLVVNVTWRNKTYVGTLLDCTRHDWAPPRFCDSPTSDLEMRNGRGRGKRMRPSSNTPVSEAAAASDSKGTSSSSKTRAGANSKGRRGSQNSSEHRPPASSTSEDVKASPSSANKRKSKPLSDMELNSSSEDSKGSKRVRTNSMGSATGPLPGTKVEPTLVDRNCPSPVLIDCPHPNCNKKYKHINGLKYHQAHAHTDDDSKPEADGDSEYGEEPALHADLSCNGAPVPQKGSLSPARSATPKVRLVEPHSPSPSSKFSTKGLCKKKLSGEGDTDPGALSNDGSDDGPSVMDETSNDAFDSLERKCMEKEKCKKPSSLKSEKIPSKSLKSARPIAPAIPPQQIYTFQTATFTAASPGSSSGLTTTVVQAMPNSPQLKPIQPKPTVMGEPFTVNPALTPAKDKKKKDKKKKDSSKELESPLTPGKVCRAEEGKSPFRDAAGDGIKVESLLNGSSESHQSRLASIKAEADKIYSFTDNAPSPSIGGSSRLDSTTPTQPLTPLHVVTQNGAEASSVKTNSPAYSDISDAGEDGEGKVDSAKSKDPEQLVKEGAKKTLFPPQPQSKDSPYYQGFESYYSPGYAQSSPGTLTSSSQAGMEGQPLKTKKDEEPESVEGKVKNDVCEEKKPELSNSSQQPSVIQQRPNMYMQSLYYNQYAYVPPYGYSDQSYHSHLLSTNTAYRQQYEEQQKRQSLEQQQQQQRGLDKKTEMGLKEREASLKEEWKQKPSIPPTLTKAPSLTDLVKSGPGKAKEPGTDPAKSVIIPKLDDSSKLPSQPPEGLKGKLGEASHLGKEASEAKTGTECGRQAEVDPILWYRQETESRMWTYVYPAKYSDIKSEDDRWKEERDRKLKEDRSRSKDSVPKEDGKESTSSDCKLPPSEESRLGSKEPRPSVHVPVSSPLTQHQSYIPYMHGYSYSQSYDPNHPSYRGMPAVMMQNYPGSYLPSSYSFSPYGSKVSGGEDADKARASPSVSCKASSESKALDILQQHASHYKSKSPTISDKNSQERDRGGCGVVGGGGSCGSVAGAGGTDRSADRPRTSPSQRLMSTHHHHHHLGYSLLPAQYNLPYAAGLSSTAIVASQQGSTPSLYPPPRR
B2: LAS1L1 (LAS1 like ribosome biogenesis factor 1) (protein, UniProt A2BE28 1-776)
chain: MDRVWRAWDGQSFKENQPESPSARGIVVSWLSRAEWEQVTVYLFCDDHKLQQYALNRITVWRSRLGNELPLAVASTADLVRCKLIDAAGTLGTDELRLLYGMALVRFVNLISERKTKCSNLPLKYLAQEVNIPDWIVELRHNLTHKKMPHINECRRGCYFVLNWLQKTYWSRQLEGSLKETWELDEDQLDAEDPEEEEREIIADDVLEEIPEPQDDDKDEELAVEDDANTKGNEEVASHPEPSSRHKELYEKARELLVSYEEEQFKVLEKHRHLLQAIKVWNNLSPRVQCILEELKSISWENRDAVLDAFLDDGFLIPTFEQLAALQIEYEDGQTEVQKGEVTEPNSHKNIDLNEVLVPKPFSQFWQPLLRGLHSQTFTQALLERMFSELSTVGSTGIRPTYILRWTVELIVANTKTGRNARRFSASQWEARKSWRLFNCSATLDWPQVIESCLGSPCWASPQLLQVVFKAMGQVLPDEEQEKLLRVCSIYTQNGENGLAKAIEGSSSSSTGKAPYTLDTLHEDLQPPGTNCESEESIQQKEQGNLKDVKQEEKKENEEEEKEEEEMEEEEEEEEEEKEEEEEEQEQEEHQEEEQEEEEEEENQKVFQDQMEADVEESDDVEEEEEVDDEEEDEDDDYDDDEEEDRMEVGAFSLAQGSSVFENTRTTSRKREALQGSAWQVSSEDVRWGTFPLGRLPGQTEDPAELMLDNYDTMYLLDQPVIEHRLEPQKSKSSTLSLCCGGSNTNSSSSSSSGNMEGLLWNQGQMHGLKAGLQLF
B3: NOL9 (Nucleolar protein 9) (protein, UniProt Q3TZX8 1-714)
chain: MAESEVLHRRAPSRSSWLRVRKARPHLLLSRRGRRRFGVLTRVELRRLRRRLLRAHALGGDWKQVAPAGAHVAVKCKLRARSRPAPRSPPTPSVPPAPCTASATCSLLNPRNHSTPQSRAGRPVRKVSPNVTQPVRDLGSGRVLMMLPPGEGFTFSGICRVTCVYGQLEVYGHIINQGQPPQDVFSVYTHSYLTINGVPYAEPEKSEKAIRREIRALLKPYTKLDDRNWVVRYFPPLGSIMILERMQSRFVDFLKTYKCSSYVLLQENAPVRVNSEFTTLKKIGIRRQKRKKAICLSESGLCALEELVSVSCDGCPVILLCGACDIGKSTFNRILINQLLNSIPGVDYLECDLGQTEFTPPGCVALLTITEPLLGPPYTHQRKPQRMVYYGKMNCYNDYENYIDIVKYVFRDYKREFPLIINTMGWVSDNGLRLLVDLIRVLSPNYVVQLYSDRCKFTPTLTSEYVELTDGLYTKSKIKRYRGFEIPEFGDNLEFTYEEKESSPLPVFTGHVLLSVHSEFLSSKNEKNRAKYNRIFRDLAVLGYLSQLMLPVPESLSPLHSLTPYQVPFSAVAIRVLHADVAPTHILYAVNASWVGLCRIVDDMKGYTRGPILLAQNPICDCLGFGICRGIDMDKRTYHILTPLPPEELKTVNCLLVGSISIPHCIFQNQPGPEGSVPYVTTDYNLNIPGATEKIGEREYGKAFPRHKLRQRRK
B4: NANOG (protein, UniProt Q80Z64 1-305)
chain: MSVGLPGPHSLPSSEEASNSGNASSMPAVFHPENYSCLQGSATEMLCTEAASPRPSSEDLPLQGSPDSSTSPKQKLSSPEADKGPEEEENKVLARKQKMRTVFSQAQLCALKDRFQKQKYLSLQQMQELSSILNLSYKQVKTWFQNQRMKCKRWQKNQWLKTSNGLIQKGSAPVEYPSIHCSYPQGYLVNASGSLSMWGSQTWTNPTWSSQTWTNPTWNNQTWTNPTWSSQAWTAQSWNGQPWNAAPLHNFGEDFLQPYVQLQQNFSASDLEVNLEATRESHAHFSTPQALELFLNYSVTPPGEI

Target: T1, SPIC-green fluorescent protein (GFP) fusion protein (mouse)
Experiment: affinity purification with mass spectrometry; GFP-Trap agarose beads on nuclear extract of SPIC-GFP BAC ESCs in 2iLd3; 300 mM NaCl, EtBr 0.05 mg/ml to release DNA-mediated interactions, 90 min at 4°C; label-free LC-MS/MS, three biological replicates; WT ESCs as negative control

binding | Molecule
binds | PELP1 (Proline, glutamate and leucine rich protein 1) (from UniProt Q9DBD5 1-1123)
binds | SENP3 (SUMO specific peptidase 3) (from UniProt Q9EP97 1-568)
binds | B1
binds | B2
binds | B3
binds | B4
